Results are given in words; binding and its absence hold for the method and conditions named. A result given as binding can be weak or reduced; the word gives no strength.

Chains of the proteins cited; added tags and fusions are not shown. Residues count along the entry.
UniProt P14334, residues 20-183: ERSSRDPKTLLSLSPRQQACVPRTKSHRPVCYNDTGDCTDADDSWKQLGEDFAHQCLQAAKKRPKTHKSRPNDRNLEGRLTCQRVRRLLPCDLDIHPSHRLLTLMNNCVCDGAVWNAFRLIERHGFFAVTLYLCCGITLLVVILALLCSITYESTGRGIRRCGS

This experiment has as its target TAP1 with a C-terminal SpyCatcher (human) (UniProt Q03518). Put plainly: cryo-EM structure; both purified.

For the substance “hUS6 (human cytomegalovirus US6) fused to SpyTag (from UniProt P14334 20-183)”, the binding result is “binds”.

For the origin of these results see PMC12478189, “Structurally diverse viral inhibitors converge on a shared mechanism to stall the antigen transporter TAP” (Proceedings of the National Academy of Sciences of the …, 2025).
